Where two headings read alike, the source gives them in different places.

Here are results for three compounds from patent publication US6753425B2, “Photographic processing composition containing bistriazinyl arylenediamine derivative” (Fuji Photo Film Co., Ltd., priority 2000, dated 2004).

Data set [1] is described as follows: Photographic properties in color paper processing: staining by residual sensitizing dyes, ΔDB = DB−DBW, absorbancy at 450 nm.
Data set [2] in a line: Photographic properties in processing of color negative film: staining by residual sensitizing dyes, ΔDG = DG−DG0, absorbancy at 540 nm.
Where [3] appears, read: Example 1, color paper P-1, color development 38.5° C. 45 sec, absorbancy at 450 nm.
[4] abbreviates: Example 2, color paper P-1, rapid processing, color development 45.0° C. 15 sec, absorbancy at 450 nm.
[5] abbreviates: Example 3, color negative film N-1, compound in fixing solution.
The mark [6] stands for this setting: Example 4, color negative film N-1, compound in color developer, shortened processing 41.0° C. 2 min.

Consider `O=S(=O)([O-])CCNc1nc(NCC(O)CO)nc(Nc2ccc(Nc3nc(NCCS(=O)(=O)[O-])nc(NCC(O)CO)n3)cc2)n1.[Na+].[Na+]` (stereo not drawn) [Compound A-2], for which the “Evaluation of Photographic Properties (ΔDB)” value (“Evaluation … (ΔDB)” for short) is listed as 0.004 in data set [1] (setting [3]) and 0.003 in data set [1] (setting [4]). The “Evaluation of Photographic Properties (ΔDG)” value in data set [2] (setting [5]) is given as 0.003; in data set [2] (setting [6]) it was 0.000.

As to `O=S(=O)([O-])CCNc1nc(NCC(O)CO)nc(Nc2cccc(Nc3nc(NCCS(=O)(=O)[O-])nc(NCC(O)CO)n3)c2)n1.[Na+].[Na+]` (stereo not drawn) [Compound A-3], the “Evaluation … (ΔDB)” value in data set [1] (setting [3]) and in data set [1] (setting [4]) was 0.003 each time. Also, the results for the “Evaluation of Photographic Properties (ΔDG)” value in data set [2] (setting [5]) and in data set [2] (setting [6]) were 0.004 and 0.003, respectively.

On to `CC(CO)Nc1nc(NCC(O)CO)nc(Nc2cc(Nc3nc(NCC(O)CO)nc(NC(C)CO)n3)cc(S(=O)(=O)[O-])c2)n1.[Na+]` (stereo not drawn) [Compound A-23], for which the “Evaluation … (ΔDB)” value in data set [1] is on record as 0.006.
